## Percent effect of library compounds

By UniProt entry, the sequences of proteins in these tests, tags left out.
UniProt P9WFT3, whole entry: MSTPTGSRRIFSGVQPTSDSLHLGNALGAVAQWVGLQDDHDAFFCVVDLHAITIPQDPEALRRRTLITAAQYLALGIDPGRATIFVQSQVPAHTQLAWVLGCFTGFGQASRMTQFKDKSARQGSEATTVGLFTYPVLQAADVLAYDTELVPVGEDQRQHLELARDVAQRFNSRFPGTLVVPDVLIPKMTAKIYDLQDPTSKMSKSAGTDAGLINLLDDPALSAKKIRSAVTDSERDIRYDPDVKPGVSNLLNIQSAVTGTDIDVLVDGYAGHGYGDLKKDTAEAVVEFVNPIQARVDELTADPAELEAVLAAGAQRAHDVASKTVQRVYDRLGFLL

Data taken from ChEMBL document CHEMBL3988442, “University of Dundee, Small-Polar-MMV Screening Library” (2021).

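Tryptophan-tRNA ligase, Mycobacterium tuberculosis (UniProt P9WFT3). Enzyme assay of tryptophanyl-tRNA synthetase; the read-out is not stated. Compounds at 10 µM. Higher most likely means stronger inhibition; the record gives no direction and few retests gave an IC50. About 65,000 compounds were tested under these conditions; 0.098% (about 64) showed 50% or more at least once.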

Results are given as percent effect. The record does not define 0% and 100%; most values in the screen are far below 50% and negative numbers occur (in some assays of this library far below -100). This is an unselected part of the compounds tested.

Compound	Percent Effect
Cn1nc(CNC(=O)C2CC2)cc1C1CC1	-0.1103%
CN(Cc1ccccn1)C1COC2(CCN(Cc3cccnc3)CC2)C1 (stereo unspecified)	0.7048%
CNC(=O)c1cccc(CN2CCC(N(C)Cc3noc(C)n3)C2)c1 (stereo unspecified)	0.6353%
CSc1ccc(CNC2(c3ccc(F)cc3)CCOCC2)cc1	-2.22%
CNC[C@H]1CC[C@H](c2cc(CN(C)C(=O)c3cnccn3)n(C)n2)CC1	5.426%
Cc1nn(C)c(Cl)c1C1CCCN1CC(=O)NCc1ccccn1 (stereo unspecified)	2.437%
CN(C)C[C@@H]1CN(Cc2ccccc2C#N)C[C@@H]1CO	8.178%
O=C(O)C1c2nc[nH]c2CCN1Cc1ccc(-c2ccccc2)s1 (stereo unspecified)	-4.515%
O=C1CC(c2ccc(O)cc2)c2sc(C(=O)O)c(-c3ccccc3)c2N1 (stereo unspecified)	0.618%
COc1ccc(C2C3=C(COC3=O)Nc3[nH]nc(C)c32)cc1OC (stereo unspecified)	-3.417%
CN(C)CCN(C)C1CCCN(C(=O)c2ccc(Cn3ccnc3)o2)C1 (stereo unspecified)	4.296%
O=C1CNc2ncnc(NCc3cccs3)c2N1	-0.1971%
CC1(C)Oc2ccc(NC(=O)c3ccc(=O)[nH]n3)cc2O1	-0.9372%
CN(C)c1ncnc2c1CCN(C(=O)c1sccc1S(N)(=O)=O)C2	-5.512%
CC1c2ncc(Cn3cncn3)n2CCN1C(=O)c1cscn1 (stereo unspecified)	14.1%
O=C(CN1CCC2(CCCCC2)C1)NCC(F)(F)F	2.859%
O=C(NCCN1CCOCC1)c1cc(-c2ccccc2Cl)[nH]n1	-0.7435%
Cc1cccc(NC(=O)CN2C(=O)CC(C)(C)c3ccccc32)n1	2.783%
Cc1cccc(CN2CC[C@@H]3[C@@H]2CCN3C(=O)c2cnoc2C)n1	-0.5629%
CCOCCN1CCN(Cc2nc(C)no2)CC1CC (stereo unspecified)	0.7936%
CN(C)Cc1cnc2n1CCN(Cc1ccsc1)CC2	2.385%
CCn1cc(C(=O)N(C)[C@@H]2CC[C@@H](N3CCCC3)[C@@H]2O)c(C)n1	-10.37%
O=C(c1ccccc1OCC1CC1)N1CCCC(n2ccnc2)C1 (stereo unspecified)	2.047%
CCn1cc(NC(=O)C2CCN(CC(=O)NC3CCCC3)CC2)cn1	0.2201%
CN(C)c1ccc(C(=O)NCCCNc2ccc(C(F)(F)F)cn2)cc1	1.768%
COCCN1C[C@@H]2CN(c3cnccn3)C[C@@H]2C1=O	-6.623%
CCS(=O)(=O)NC(CCSC)C(=O)Nc1ccc(F)cc1 (stereo unspecified)	0.8997%
CC(C)c1nnsc1CNC(=O)C1CCN(C(=O)C2CCC2)CC1	-3.608%
CCc1c(C(=O)NC2CCS(=O)(=O)C2)cnn1-c1ccc(F)cc1 (stereo unspecified)	-4.17%
CC(=O)N1CCOCC2(C1)CN(S(C)(=O)=O)CCO2 (stereo unspecified)	-2.913%
Cc1cc(CNC(=O)CCc2ccc(S(N)(=O)=O)cc2)no1	-3.641%
COc1ccc(N2CCNC(C(N)=O)C2)cc1 (stereo unspecified)	29.95%
CN(C)c1cc2c(nn1)CCN(C(=O)Cc1ccc3c(c1)CCC3)C2	-7.888%
Cc1noc(C2CCC3(CCN(C(=O)c4ccn(C)n4)CC3)O2)n1 (stereo unspecified)	0.8167%
O=C([C@@H]1CC[C@@H]2[C@@H](CCN2Cc2ccoc2)O1)N1CCCC1	1.174%
CCO[C@H]1C[C@@H](O)C12CCN(C(=O)CN1CCCCCC1=O)CC2	1.852%
CNC(=O)Nc1cc(-c2ccccc2C)nn1CCO	2.225%
O=C1NCCCCC1NCc1csc(-c2ccccn2)n1 (stereo unspecified)	-0.4128%
CC(C)CC(=O)N1C[C@@H]2CCN(c3cnccn3)C[C@@H]2C1	0.4975%
CCc1nnc(CNC2CCCN(Cc3noc(C4CC4)n3)C2)o1 (stereo unspecified)	-5.141%
O=c1cc(N2CCNCC2)cnn1Cc1noc(C2CCCC2)n1	2.397%
CC(=O)c1sc2nc3c(c(C(F)(F)F)c2c1N)CN(C(C)=O)CC3	1.498%
NC(=O)N1CCc2cc(C(=O)O)c(-c3ccsc3)nc2CC1	-4.207%
O=C(NCCCO)Nc1ccccc1	-6.049%
Cn1ncc(CN2CCc3onc(-c4cccc(F)c4)c3C2)c1C1CC1	0.8051%
CCN(C)C(=O)CN1CCC(c2cc(N3CCOCC3)nc(C)n2)CC1	-1.944%
CN(C)c1ncc(CN2CCC(c3nnsc3S(C)(=O)=O)CC2)cn1	-7.274%
O=C(c1ccncc1F)N1CCCC(c2nccn2CC2CCC2)C1 (stereo unspecified)	-0.4079%
O=C(CCN1CCOC(C(F)(F)F)C1)NCc1cccc(Cl)c1 (stereo unspecified)	-4.64%
CC(C)(C)n1cc(C(=O)N2CCCN(Cc3cccs3)CC2)cn1	-2.987%
COCc1cn(C[C@H]2C[C@@H]3CCN2C[C@@H]3C(=O)N2CCOCC2)nn1	-2.807%
Cc1cccc(N2CCC3(CCCN(C(=O)c4cccnc4)C3)C2)n1 (stereo unspecified)	-3.099%
CC(C)NC(=O)Cn1cc(-c2ccccc2)ncc1=O	-1.607%
CCc1cc(N[C@H]2CCC[C@H]2CO)n2nccc2n1	-0.6717%
CCCc1cc(=O)[nH]c(-c2cccc(CN3CCCCCC3)c2)n1	2.051%
c1cc(C[C@H]2[C@H](N3CCOCC3)CCN2Cc2ccoc2)ccn1	-2.323%
CN(Cc1cccs1)C(=O)c1ccc(=O)n(C)c1	0.9226%
O=C(NCCC1COc2ccccc2O1)c1ccc(-c2cc[nH]n2)nc1 (stereo unspecified)	-2.093%
COCCOCC(=O)Nc1ccc(C)cc1F	-0.3178%
Cc1nccc(-c2ccccc2)c1C(=O)N1CCC2(CC(=O)NC2=O)C1 (stereo unspecified)	2.785%
O=C(NCCc1cccnc1)N1CCCC1c1ccsc1 (stereo unspecified)	-0.2227%
Cc1ccc(N2CC3(CCN(c4nccs4)C3)C2)nn1	1.234%
CCn1ncc(-c2cc(C(F)(F)F)nc(N3CCC(N)CC3)n2)c1C	0.4167%
CCn1c(C(=O)N2CCCN(CC(N)=O)CC2)cc2ccccc21	-9.137%
Cc1ccc(N2CC[C@H]3CN(C(=O)c4ccn(C)n4)C[C@H]3C2)nn1	0.7359%
COc1cc(NC(=O)C2CC(=O)N(c3cccc(Br)c3)C2)ncn1 (stereo unspecified)	-7.675%
Cn1ncc2c1CCCN(C(=O)C1CCC1)C2	-8.708%
O=C1CC(c2cccnc2)c2c(sc3c2CCCC3)N1 (stereo unspecified)	0.08157%
Clc1ccccc1Cc1noc(CN2CCCC(CN3CCCC3)C2)n1 (stereo unspecified)	-1.614%
CCN(CC)S(=O)(=O)NC(=O)c1cc(C)n(-c2ccccc2)n1	6.307%
O=C(NCCN1CCOCC1)c1ccc(OCc2ccccc2)nc1	-1.029%
O=C(Nc1cnccn1)[C@H]1CC[C@@H]2[C@@H](CCN2Cc2ccoc2)O1	9.528%
CN1CCN(C2CCN(CCOc3cccc(F)c3)CC2)C1=O	-0.779%
CCCN1CC2(CCN(C)CC2)CC1C(=O)NCCn1cccn1 (stereo unspecified)	-1.72%